Where “and” joins values, the source holds several entries; their conditions need not be identical. Identical values can stand only once. Counter-ions that a name gives are not always drawn. Some of the results follow. Many values rest on one well or one pass, so single values are uncertain.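 Primary human fetal astrocytes engulfed labelled rat cortical synaptosomes, measured as a red/green ratio corrected for calcein live-cell signal and scaled to the plate median. Toxicity meant calcein falling over 30%; decreased phagocytosis meant below 70% of median above 5 µM.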
Tests used:
Conditions in all cases: 24 h
Human fetal astrocytes [1] = assay: loss of total cells relative to no-compound high-control median (toxicity); higher = more toxic (fewer cells)
Human fetal astrocytes [2] = assay: as above; remark: listed apart in the source
Human fetal astrocytes [3] = assay: synaptosome phagocytosis (pHrodo/calcein intensity ratio) relative to plate median of data wells; higher = more phagocytosis
Human fetal astrocytes [4] = assay: as above; remark: listed apart in the source

| SMILES | loss of total cells (Human fetal astrocytes [1]; 1.39 µM) | loss of total cells (Human fetal astrocytes [1]; 2.78 µM) | loss of total cells (Human fetal astrocytes [1]; 5.56 µM) | loss of total cells (Human fetal astrocytes [1]; 11.11 µM) | loss of total cells (Human fetal astrocytes [1]; 22.22 µM) | loss of total cells (Human fetal astrocytes [2]; 1.39 µM) | loss of total cells (Human fetal astrocytes [2]; 2.78 µM) | loss of total cells (Human fetal astrocytes [2]; 5.56 µM) | loss of total cells (Human fetal astrocytes [2]; 11.11 µM) | loss of total cells (Human fetal astrocytes [2]; 22.22 µM) | synaptosome phagocytosis (Human fetal astrocytes [3]; 1.39 µM) | synaptosome phagocytosis (Human fetal astrocytes [3]; 2.78 µM) | synaptosome phagocytosis (Human fetal astrocytes [3]; 5.56 µM) | synaptosome phagocytosis (Human fetal astrocytes [3]; 11.11 µM) | synaptosome phagocytosis (Human fetal astrocytes [3]; 22.22 µM) | synaptosome phagocytosis (Human fetal astrocytes [4]; 1.39 µM) | synaptosome phagocytosis (Human fetal astrocytes [4]; 2.78 µM) | synaptosome phagocytosis (Human fetal astrocytes [4]; 5.56 µM) | synaptosome phagocytosis (Human fetal astrocytes [4]; 11.11 µM) | synaptosome phagocytosis (Human fetal astrocytes [4]; 22.22 µM) |
| --- | --- | --- | --- | --- | --- | --- | --- | --- | --- | --- | --- | --- | --- | --- | --- | --- | --- | --- | --- | --- |
| NC(Cc1ccc(Cl)cc1)C(=O)O (racemic) [(±)-p-Chlorophenylalanine] | -21.3% | -18.9% | -7.8% | -20.2% | -20.7% | 4.1% | -7.6% | 19.8% | 18.9% | 26.7% | 139% | 82.8% | 113% | 120% | 136% | 106% | 85.8% | 104% | 111% | 92.8% |
| COC(=O)CC1C(C)(C)C(OC(C)=O)[C@@H]2[C@@H](OC(C)=O)[C@]34O[C@@]2(O)[C@]1(C)C3CC[C@]1(C)C4=CC(=O)O[C@H]1c1ccoc1 (some centres undefined) |  |  |  |  |  | 11.2% | 2.5% | 16.7% | 4.6% | 22% | 114% | 94.5% | 137% | 95.1% | 49.8% |  |  |  |  |  |
| CCOC(=O)NNc1nncc2ccccc12 |  |  |  |  |  | 4.7% | 16.2% | 7.2% | 16.3% | 22.7% | 108% | 113% | 105% | 135% | 101% |  |  |  |  |  |
| O=c1cc(-c2ccccc2O)oc2cc(O)ccc12 |  |  |  |  |  | -18.9% | -1.8% | -6.6% | -3.4% | 4.4% | 107% | 94% | 97.5% | 102% | 112% |  |  |  |  |  |
| CCCCC(=O)O[C@]1(C(=O)CO)[C@@H](C)C[C@H]2[C@@H]3CCC4=CC(=O)C=C[C@]4(C)[C@@]3(F)[C@@H](O)C[C@@]21C |  |  |  |  |  | -11.6% | -16.8% | -8.1% | -10.9% | -30% | 103% | 110% | 79.1% | 98.5% | 105% |  |  |  |  |  |
| O=c1[nH]cc(F)c(=O)[nH]1 [5-Fluorouracil] | 5.4% | 5.1% | -18.1% | -5.8% | 0.8% | -3.3% | -9.8% | -6.3% | 4.9% | 48.9% | 102% | 118% | 110% | 130% | 125% | 92.1% | 138% | 95.3% | 136% | 114% |
| O=C(O)C1CC([C@@H]2CCCCN2)CN2CCCCC12 (some centres undefined) |  |  |  |  |  | -5.7% | -14.1% | 17.6% | 10.1% | 9.6% | 111% | 89% | 113% | 128% | 107% |  |  |  |  |  |
| CCN(CC)C(=O)c1ccc(O)c(OC)c1 [Vanillic acid diethylamide] | 2.9% | -14.5% | 0.8% | -19.3% | 1.6% | -7.6% | 6.6% | -6.1% | 9.7% | -5.6% | 128% | 122% | 122% | 131% | 90.4% | 92.9% | 103% | 112% | 92.3% | 95.4% |
| Cc1ncc(CO)c(CO)c1O |  |  |  |  |  | 25.8% | -23% | 1.2% | -6.9% | 10.3% | 121% | 103% | 106% | 81.6% | 88.6% |  |  |  |  |  |
| O=C(O)C(S)C(S)C(=O)O (centres undefined) |  |  |  |  |  | -19.7% | 3.2% | 16.1% | 18.9% | 15.6% | 99.8% | 87.4% | 105% | 104% | 90.6% |  |  |  |  |  |
| C[C@@H]1O[C@@H](O[C@H]2[C@H](Oc3cc(O)c4c(c3)O[C@H](c3ccc(O)cc3)CC4=O)O[C@H](CO)[C@@H](O)[C@@H]2O)[C@H](O)[C@H](O)[C@H]1O |  |  |  |  |  | 6.9% | 4% | 16.7% | -13% | -9.8% | 108% | 135% | 130% | 103% | 139% |  |  |  |  |  |
| C[C@H]1COC2=C1C(=O)C(=O)c1c2ccc2c1CCCC2(C)C |  |  |  |  |  | -16.4% | -1.1% | -12.5% | 17.6% | 27.4% | 93% | 71.2% | 79% | 101% | 115% |  |  |  |  |  |
| CC(C)(C(=O)O)c1ccc(C(O)CCCN2CCC(C(O)(c3ccccc3)c3ccccc3)CC2)cc1 (centres undefined) [Fexofenadine hydrochloride] |  |  |  |  |  | 17.7% | -4.8% | 6.2% | 36.4% | 9.7% | 176% | 119% | 118% | 154% | 111% |  |  |  |  |  |
| CCCNCC(O)COc1ccccc1C(=O)CCc1ccccc1 (centres undefined) [Propafenone hydrochloride] | -18.5% | 8.6% | 3.3% | -6.7% | 25.2% | -44% | -35.7% | -4.5% | -23.4% | 17.6% | 94.3% | 90% | 85% | 112% | 84.6% | 87.5% | 95.9% | 93.6% | 86.2% | 77.4% |
| CC(N)C(=O)OC(C)(C)Cc1ccc(Cl)cc1 (centres undefined) [Alaproclate hydrochloride] | -24.2% | -13.8% | -5.1% | 2.2% | 13.2% | -46% | 21.4% | 13.7% | 39.7% | 9.7% | 81.5% | 122% | 79.1% | 104% | 101% | 122% | 92.1% | 103% | 102% | 97.2% |
| O=C1N=C(O)NC1(c1ccccc1)c1ccccc1 |  |  |  |  |  | -25.7% | -1.5% | -21.3% | 13.3% | -2.8% | 101% | 117% | 107% | 89.5% | 116% |  |  |  |  |  |
| C=Cc1c(C)c2cc3[nH]c(cc4nc(cc5nc(cc1[nH]2)C(C)=C5CCC(=O)O)C(CCC(=O)O)=C4C)c(C)c3C=C |  |  |  |  |  | 28.5% | -0.4% | 17.4% | 23.8% | 33.3% | 88.7% | 110% | 117% | 119% | 121% |  |  |  |  |  |
| CC[C@]1(O)C[C@H]2CN(CCc3c([nH]c4ccccc34)[C@@](C(=O)OC)(c3cc4c(cc3OC)N(C=O)[C@H]3[C@@](O)(C(=O)OC)[C@H](OC(C)=O)[C@]5(CC)C=CCN6CC[C@]43[C@@H]65)C2)C1 |  |  |  |  |  | 1.7% | 14.3% | 15.9% | 18% | 38.5% | 72.4% | 95% | 72.1% | 85.4% | 91.3% |  |  |  |  |  |
| O=C(O)c1ccccc1C(=O)Nc1ccc(S(=O)(=O)Nc2nccs2)cc1 |  |  |  |  |  |  | -4.6% and 4% | 3.3% and -3.9% | -8.6% and -19.5% | 8.5% and 6.8% | 102% and 111% | 101% and 93.4% | 112% | 100% and 86.4% | 109% and 96.9% |  |  |  |  |  |

From the supplement of paper PMC10689618
